# Assay results from the supplement of paper PMC8728848.
# The list shows a part of the results.
# Tests used:
# Assay in all cases: glycan array binding signal (z-score within array); higher = stronger binding
# Settings in all cases: glycan notation: IUPAC condensed, linker removed
# [1] = target: GlcNAc(b1-3)Gal(b1-4)GlcNAc(b1-3)Gal(b1-4)GlcNAc(b1-3)Gal(b1-4)GlcNAc(b1-3)Gal(b1-4)GlcNAc(b1-2)[GlcNAc(b1-3)Gal(b1-4)GlcNAc(b1-3)Gal(b1-4)GlcNAc(b1-3)Gal(b1-4)GlcNAc(b1-3)Gal(b1-4)GlcNAc(b1-6)]Man(a1-6)[GlcNAc(b1-3)Gal(b1-4)GlcNAc(b1-3)Gal(b1-4)GlcNAc(b1-3)Gal(b1-4)GlcNAc(b1-3)Gal(b1-4)GlcNAc(b1-2)Man(a1-3)]Man(b1-4)GlcNAc(b1-4)[Fuc(a1-6)]GlcNAc
# Method in brief: (§1)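 Glycan array data came from 3228 arrays in the Consortium for Functional Glycomics database, and only arrays with an available protein sequence were kept. Glycan names were put into IUPAC-condensed notation, and columns mapping to the same glycan were averaged. The binding signal is a within-array Z-score, averaged across arrays of one protein sequence run at different concentrations or buffers and across linkers. A negative Z-score can be read as non-binding.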
# [2] = target: GlcNAc(b1-3)Gal(b1-4)GlcNAc(b1-3)Gal(b1-4)GlcNAc(b1-3)GalNAc
# Method in brief: as §1
# [3] = target: GlcNAc(b1-3)Gal(b1-4)GlcNAc(b1-3)GalNAc
# Method in brief: as §1
# [4] = target: GlcNAc(b1-3)Gal(b1-4)GlcNAc(b1-3)[GlcNAc(b1-3)Gal(b1-4)GlcNAc(b1-3)]GalNAc
# Method in brief: as §1
# [5] = target: GlcNAc(b1-3)Gal(b1-4)GlcNAc(b1-6)[Gal(b1-3)]GalNAc
# Method in brief: as §1
# [6] = target: GlcNAc(b1-3)Gal(b1-4)GlcNAc(b1-6)[GlcNAc(b1-3)Gal(b1-3)]GalNAc
# Method in brief: as §1
# [7] = target: GlcNAc(b1-3)Gal(b1-4)GlcNAc(b1-6)[GlcNAc(b1-3)]Gal(b1-4)GlcNAc
# Method in brief: as §1
# GlcNAc(b1-3)GalNAc = target: GlcNAc(b1-3)GalNAc
# Method in brief: as §1
# GlcNAc(b1-3)Man = target: GlcNAc(b1-3)Man
# Method in brief: as §1
# [8] = target: GlcNAc(b1-3)[GlcNAc(b1-4)][GlcNAc(b1-6)]GlcNAc
# Method in brief: as §1
# [9] = target: GlcNAc(b1-3)[GlcNAc(b1-6)]Gal(b1-4)GlcNAc
# Method in brief: as §1
# [10] = target: GlcNAc(b1-3)[GlcNAc(b1-6)]GalNAc
# Method in brief: as §1
# [11] = target: GlcNAc(b1-4)Gal(b1-4)GlcNAc
# Method in brief: as §1
# GlcNAc(b1-4)GlcNAc = target: GlcNAc(b1-4)GlcNAc
# Method in brief: as §1
# [12] = target: GlcNAc(b1-4)GlcNAc(b1-4)GlcNAc
# Method in brief: as §1
# [13] = target: GlcNAc(b1-4)GlcNAc(b1-4)GlcNAc(b1-4)GlcNAc(b1-4)GlcNAc
# Method in brief: as §1
# [14] = target: GlcNAc(b1-4)GlcNAc(b1-4)GlcNAc(b1-4)GlcNAc(b1-4)GlcNAc(b1-4)GlcNAc
# Method in brief: as §1
# [15] = target: GlcNAc(b1-4)[GlcNAc(b1-6)]GalNAc
# Method in brief: as §1
# [16] = target: GlcNAc(b1-6)Gal(b1-4)GlcNAc
# Method in brief: as §1
# GlcNAc(b1-6)GalNAc = target: GlcNAc(b1-6)GalNAc
# Method in brief: as §1
# [17] = target: GlcNAc6S(b1-3)Gal(b1-4)GlcNAc
# Method in brief: as §1
# Kdn(a2-3)Gal(b1-3)GalNAc = target: Kdn(a2-3)Gal(b1-3)GalNAc
# Method in brief: as §1
# Kdn(a2-3)Gal(b1-3)GlcNAc = target: Kdn(a2-3)Gal(b1-3)GlcNAc
# Method in brief: as §1
# Kdn(a2-3)Gal(b1-4)Glc = target: Kdn(a2-3)Gal(b1-4)Glc
# Method in brief: as §1
# Kdn(a2-3)Gal(b1-4)GlcNAc = target: Kdn(a2-3)Gal(b1-4)GlcNAc
# Method in brief: as §1
# [18] = target: Kdn(a2-3)Gal(b1-4)[Fuc(a1-3)]GlcNAc
# Method in brief: as §1
# Kdn(a2-6)Gal(b1-4)GlcNAc = target: Kdn(a2-6)Gal(b1-4)GlcNAc
# Method in brief: as §1
# [19] = target: Man(a1-2)Man(a1-2)Man(a1-3)Man
# Method in brief: as §1
# [20] = target: Man(a1-2)Man(a1-2)Man(a1-6)[Man(a1-3)]Man
# Method in brief: as §1
# Man(a1-2)Man(a1-3)Man = target: Man(a1-2)Man(a1-3)Man
# Method in brief: as §1
# [21] = target: Man(a1-2)Man(a1-3)[Man(a1-2)Man(a1-6)]Man
# Method in brief: as §1
# [22] = target: Man(a1-2)Man(a1-3)[Man(a1-2)Man(a1-6)]Man(a1-6)[Man(a1-2)Man(a1-2)Man(a1-3)]Man
# Method in brief: as §1
# [23] = target: Man(a1-2)Man(a1-3)[Man(a1-2)Man(a1-6)]Man(a1-6)[Man(a1-2)Man(a1-2)Man(a1-3)]Man(b1-4)GlcNAc(b1-4)GlcNAc
# Method in brief: as §1
# [24] = target: Man(a1-2)Man(a1-3)[Man(a1-6)]Man(a1-6)[Man(a1-2)Man(a1-3)]Man(b1-4)GlcNAc(b1-4)GlcNAc
# Method in brief: as §1
# [25] = target: Man(a1-2)Man(a1-6)[Man(a1-3)]Man(a1-6)[Man(a1-2)Man(a1-2)Man(a1-3)]Man
# Method in brief: as §1
# [26] = target: Man(a1-2)Man(a1-6)[Man(a1-3)]Man(a1-6)[Man(a1-2)Man(a1-2)Man(a1-3)]Man(b1-4)GlcNAc(b1-4)GlcNAc
# Method in brief: as §1
# Man(a1-3)[Man(a1-6)]Man = target: Man(a1-3)[Man(a1-6)]Man
# Method in brief: as §1
binder,measurement,setting,value
"AT3G44510(29) (Arabidopsis thaliana), F4J341 (protein) MEEHLQGRIKLHDGRYLAYKERGVPKDDAKFTIVLVHGFGSSKDMNFNVSQELVNEIGIYFVLYDRAGYGESDPNPKRSLKSEAYDVQELADGLEIGSRFYLIGISMGSYTVWSCLKHIPQRLAGVAMVAPVVNFRWPSIPKSLMPKDYRREVAKWSVWIANYFPGLLQWLVTQNMFSTTSMLEKNPVYFNDQDIEVLKHIKGFPMLTKEKLRERGVFGTLRSDFLVAFGDWDFDPADLPDPSLSGPEKGSSSVHIWQGYEDKVMPFQLQRCLCRKLPWIRYHEVPKGGHLIVHYDGICDAILKSLLLGEDLPMYKPKAVITEPA",glycan array binding signal (z-score),[1],-0.135
same,glycan array binding signal (z-score),[2],-0.482
same,glycan array binding signal (z-score),[3],1.05
same,glycan array binding signal (z-score),[4],-0.319
same,glycan array binding signal (z-score),[5],-0.882
same,glycan array binding signal (z-score),[6],-0.752
same,glycan array binding signal (z-score),[7],0.419
same,glycan array binding signal (z-score),GlcNAc(b1-3)GalNAc,-0.697
same,glycan array binding signal (z-score),GlcNAc(b1-3)Man,-0.898
same,glycan array binding signal (z-score),[8],-1
same,glycan array binding signal (z-score),[9],0.341
same,glycan array binding signal (z-score),[10],0.015
same,glycan array binding signal (z-score),[11],-0.387
same,glycan array binding signal (z-score),GlcNAc(b1-4)GlcNAc,-0.957
same,glycan array binding signal (z-score),[12],-0.406
same,glycan array binding signal (z-score),[13],0.486
same,glycan array binding signal (z-score),[14],-0.257
same,glycan array binding signal (z-score),[15],-0.544
same,glycan array binding signal (z-score),[16],-0.408
same,glycan array binding signal (z-score),GlcNAc(b1-6)GalNAc,0.273
same,glycan array binding signal (z-score),[17],-0.216
same,glycan array binding signal (z-score),Kdn(a2-3)Gal(b1-3)GalNAc,-0.085
same,glycan array binding signal (z-score),Kdn(a2-3)Gal(b1-3)GlcNAc,-0.008
same,glycan array binding signal (z-score),Kdn(a2-3)Gal(b1-4)Glc,-0.233
same,glycan array binding signal (z-score),Kdn(a2-3)Gal(b1-4)GlcNAc,-0.701
same,glycan array binding signal (z-score),[18],-0.168
same,glycan array binding signal (z-score),Kdn(a2-6)Gal(b1-4)GlcNAc,-1.08
same,glycan array binding signal (z-score),[19],0.166
same,glycan array binding signal (z-score),[20],-0.15
same,glycan array binding signal (z-score),Man(a1-2)Man(a1-3)Man,-0.244
same,glycan array binding signal (z-score),[21],-0.23
same,glycan array binding signal (z-score),[22],-0.05
same,glycan array binding signal (z-score),[23],0.354
same,glycan array binding signal (z-score),[24],-0.325
same,glycan array binding signal (z-score),[25],-0.613
same,glycan array binding signal (z-score),[26],-0.348
same,glycan array binding signal (z-score),Man(a1-3)[Man(a1-6)]Man,-0.444

# 2 successive entries from above, for reference:
binder,measurement,setting,value
"AT3G44510(29) (Arabidopsis thaliana), F4J341 (protein) MEEHLQGRIKLHDGRYLAYKERGVPKDDAKFTIVLVHGFGSSKDMNFNVSQELVNEIGIYFVLYDRAGYGESDPNPKRSLKSEAYDVQELADGLEIGSRFYLIGISMGSYTVWSCLKHIPQRLAGVAMVAPVVNFRWPSIPKSLMPKDYRREVAKWSVWIANYFPGLLQWLVTQNMFSTTSMLEKNPVYFNDQDIEVLKHIKGFPMLTKEKLRERGVFGTLRSDFLVAFGDWDFDPADLPDPSLSGPEKGSSSVHIWQGYEDKVMPFQLQRCLCRKLPWIRYHEVPKGGHLIVHYDGICDAILKSLLLGEDLPMYKPKAVITEPA",glycan array binding signal (z-score),[9],0.341
same,glycan array binding signal (z-score),[10],0.015
